# ± gives the standard deviation of the averaged measurements. Some of the results follow. The list holds hits alone, and they repeat only in part.
# The chains behind the UniProt entries cited, without tags or fusion partners.
# DIDO1, Q9BTC0, UniProt Q9BTC0, whole entry: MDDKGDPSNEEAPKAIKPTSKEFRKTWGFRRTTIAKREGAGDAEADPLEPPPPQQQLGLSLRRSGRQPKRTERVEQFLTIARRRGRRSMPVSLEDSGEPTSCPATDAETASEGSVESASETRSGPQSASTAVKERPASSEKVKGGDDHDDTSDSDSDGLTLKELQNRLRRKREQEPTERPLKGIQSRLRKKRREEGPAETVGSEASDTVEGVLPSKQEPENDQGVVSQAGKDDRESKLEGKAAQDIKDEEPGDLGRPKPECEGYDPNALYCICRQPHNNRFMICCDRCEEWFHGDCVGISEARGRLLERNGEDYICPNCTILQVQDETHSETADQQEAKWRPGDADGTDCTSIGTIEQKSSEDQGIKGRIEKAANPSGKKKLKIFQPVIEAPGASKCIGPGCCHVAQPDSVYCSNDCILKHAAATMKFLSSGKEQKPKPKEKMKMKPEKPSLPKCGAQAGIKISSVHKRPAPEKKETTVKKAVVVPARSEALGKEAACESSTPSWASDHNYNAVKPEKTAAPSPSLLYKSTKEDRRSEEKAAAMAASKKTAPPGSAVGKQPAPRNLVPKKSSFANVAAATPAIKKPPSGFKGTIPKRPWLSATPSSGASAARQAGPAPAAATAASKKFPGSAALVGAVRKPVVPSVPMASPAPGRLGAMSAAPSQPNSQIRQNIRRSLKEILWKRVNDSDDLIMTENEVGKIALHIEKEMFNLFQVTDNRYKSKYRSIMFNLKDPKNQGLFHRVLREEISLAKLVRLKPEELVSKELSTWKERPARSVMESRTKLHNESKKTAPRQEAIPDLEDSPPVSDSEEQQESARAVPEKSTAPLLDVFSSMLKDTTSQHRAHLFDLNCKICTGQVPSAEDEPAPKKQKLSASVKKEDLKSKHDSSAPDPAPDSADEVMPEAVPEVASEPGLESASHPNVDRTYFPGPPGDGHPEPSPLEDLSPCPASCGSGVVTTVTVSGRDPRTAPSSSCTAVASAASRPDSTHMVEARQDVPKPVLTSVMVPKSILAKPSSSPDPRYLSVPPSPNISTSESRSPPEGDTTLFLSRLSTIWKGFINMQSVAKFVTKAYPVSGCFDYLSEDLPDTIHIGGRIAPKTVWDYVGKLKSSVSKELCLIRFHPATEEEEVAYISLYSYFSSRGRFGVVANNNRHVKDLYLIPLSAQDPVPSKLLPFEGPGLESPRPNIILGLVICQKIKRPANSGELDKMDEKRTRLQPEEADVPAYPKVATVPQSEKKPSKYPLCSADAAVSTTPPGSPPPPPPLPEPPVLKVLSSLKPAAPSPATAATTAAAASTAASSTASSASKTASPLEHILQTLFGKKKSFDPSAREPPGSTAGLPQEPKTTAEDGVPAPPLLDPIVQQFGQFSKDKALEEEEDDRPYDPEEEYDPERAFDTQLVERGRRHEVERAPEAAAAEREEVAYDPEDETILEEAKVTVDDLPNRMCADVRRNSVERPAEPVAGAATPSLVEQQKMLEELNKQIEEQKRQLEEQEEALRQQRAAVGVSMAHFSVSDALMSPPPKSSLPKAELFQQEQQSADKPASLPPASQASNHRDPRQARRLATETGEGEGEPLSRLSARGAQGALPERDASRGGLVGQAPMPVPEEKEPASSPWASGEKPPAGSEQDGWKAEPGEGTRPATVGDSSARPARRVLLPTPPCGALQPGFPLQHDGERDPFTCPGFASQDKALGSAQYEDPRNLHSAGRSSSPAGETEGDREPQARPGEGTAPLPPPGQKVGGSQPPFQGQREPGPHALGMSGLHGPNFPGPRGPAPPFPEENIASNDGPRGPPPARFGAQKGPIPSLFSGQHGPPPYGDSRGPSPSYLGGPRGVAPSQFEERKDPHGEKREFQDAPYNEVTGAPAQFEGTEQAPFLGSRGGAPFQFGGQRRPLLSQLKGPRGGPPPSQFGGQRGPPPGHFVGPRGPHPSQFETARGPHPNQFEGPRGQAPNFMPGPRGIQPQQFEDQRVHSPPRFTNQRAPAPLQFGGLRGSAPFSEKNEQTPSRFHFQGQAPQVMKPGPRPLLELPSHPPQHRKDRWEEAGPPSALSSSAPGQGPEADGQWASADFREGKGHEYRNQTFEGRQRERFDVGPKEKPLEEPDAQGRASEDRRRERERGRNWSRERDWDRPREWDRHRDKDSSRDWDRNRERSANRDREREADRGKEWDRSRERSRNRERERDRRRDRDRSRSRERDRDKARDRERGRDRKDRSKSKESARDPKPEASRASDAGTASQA
# DNAJB1, P25685, UniProt P25685, whole entry: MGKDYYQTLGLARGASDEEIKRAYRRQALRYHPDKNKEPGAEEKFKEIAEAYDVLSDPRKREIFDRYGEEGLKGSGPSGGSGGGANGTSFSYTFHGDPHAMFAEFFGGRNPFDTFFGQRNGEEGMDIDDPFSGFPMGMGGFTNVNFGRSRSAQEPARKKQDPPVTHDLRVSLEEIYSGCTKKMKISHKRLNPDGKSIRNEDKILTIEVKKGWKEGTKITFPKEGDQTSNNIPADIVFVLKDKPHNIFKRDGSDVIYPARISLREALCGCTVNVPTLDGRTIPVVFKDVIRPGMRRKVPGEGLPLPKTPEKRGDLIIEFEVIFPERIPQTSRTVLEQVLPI
# Experiments:
# Assay in all cases: PRISMA enrichment of interactor (LFQ) in peptide spot vs all other peptide spots (log2 fold change); higher = stronger / more specific binding of the interactor to the peptide
# CSTF3, Q12996 = target: CSTF3, Q12996
# Method: (§1)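 PRISMA: 221 full-length sORF-encoded peptides (3-15 aa), plus SOS1/GLUT1 control peptides, were spot-synthesized on cellulose membranes in triplicate. Membranes were incubated with HEK293T lysate, and bound proteins were identified by LC-MS/MS with LFQ. Enrichment is the log2 fold change versus all other peptide spots; only significant interactors are listed (cutoff c=6, x0=2.8).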
# CXorf56, Q9H5V9 = target: CXorf56, Q9H5V9
# Method: as §1
# DAZAP1, Q96EP5 = target: DAZAP1, Q96EP5
# Method: as §1
# DCXR, Q7Z4W1 = target: DCXR, Q7Z4W1
# Method: as §1
# DDX1, Q92499 = target: DDX1, Q92499
# Method: as §1
# DDX18, Q9NVP1 = target: DDX18, Q9NVP1
# Method: as §1
# DDX27, Q96GQ7 = target: DDX27, Q96GQ7
# Method: as §1
# DDX49, Q9Y6V7 = target: DDX49, Q9Y6V7
# Method: as §1
# DDX6, P26196 = target: DDX6, P26196
# Method: as §1
# DECR2, Q9NUI1 = target: DECR2, Q9NUI1
# Method: as §1
# DERPC, P0CG12 = target: DERPC, P0CG12
# Method: as §1
# DHX30, Q7L2E3 = target: DHX30, Q7L2E3
# Method: as §1
# DIDO1, Q9BTC0 = target: DIDO1, Q9BTC0
# Method: as §1
# DNAJA3, Q96EY1 = target: DNAJA3, Q96EY1
# Method: as §1
# DNAJB1, P25685 = target: DNAJB1, P25685
# Method: as §1
# DNAJB11, Q9UBS4 = target: DNAJB11, Q9UBS4
# Method: as §1
# DNAJB12, Q9NXW2 = target: DNAJB12, Q9NXW2
# Method: as §1
# DRG1, Q9Y295 = target: DRG1, Q9Y295
# Method: as §1
# DSP, P15924 = target: DSP, P15924
# Method: as §1
# DUSP11, O75319 = target: DUSP11, O75319
# Method: as §1
# EDF1, O60869 = target: EDF1, O60869
# Method: as §1
# EEFSEC, P57772 = target: EEFSEC, P57772
# Method: as §1
# EFHD2, Q96C19 = target: EFHD2, Q96C19
# Method: as §1
# EHHADH, Q08426 = target: EHHADH, Q08426
# Method: as §1
# EMG1, Q92979 = target: EMG1, Q92979
# Method: as §1
# ERCC3, P19447 = target: ERCC3, P19447
# Method: as §1
# EWSR1, Q01844 = target: EWSR1, Q01844
# Method: as §1
# FAM136A, Q96C01 = target: FAM136A, Q96C01
# Method: as §1
# FAM50A, Q14320 = target: FAM50A, Q14320
# Method: as §1
# FAM91A1, Q658Y4 = target: FAM91A1, Q658Y4
# Method: as §1
# FAM98A, Q8NCA5 = target: FAM98A, Q8NCA5
# Method: as §1
# FAM98B, Q52LJ0 = target: FAM98B, Q52LJ0
# Method: as §1
# FBL, P22087 = target: FBL, P22087
# Method: as §1
# FHL1, Q13642 = target: FHL1, Q13642
# Method: as §1
# FTSJ3, Q8IY81 = target: FTSJ3, Q8IY81
# Method: as §1
# FUBP1, Q96AE4 = target: FUBP1, Q96AE4
# Method: as §1
# FUBP3, Q96I24 = target: FUBP3, Q96I24
# Method: as §1
# FUS, P35637 = target: FUS, P35637
# Method: as §1
# G3BP1, Q13283 = target: G3BP1, Q13283
# Method: as §1
# G3BP2, Q9UN86 = target: G3BP2, Q9UN86
# Method: as §1
# GABARAPL2, P60520 = target: GABARAPL2, P60520
# Method: as §1
# GMPPA, Q96IJ6 = target: GMPPA, Q96IJ6
# Method: as §1
# GSK3B, P49841 = target: GSK3B, P49841
# Method: as §1
# GTPBP1, O00178 = target: GTPBP1, O00178
# Method: as §1
# HCFC1, P51610 = target: HCFC1, P51610
# Method: as §1
binder,measurement,setting,value
MVDNFYF [ASPN],PRISMA enrichment of interactor (log2),"CSTF3, Q12996",7.7
same,PRISMA enrichment of interactor (log2),"CXorf56, Q9H5V9",6.77
same,PRISMA enrichment of interactor (log2),"DAZAP1, Q96EP5",7.45
same,PRISMA enrichment of interactor (log2),"DCXR, Q7Z4W1",4.85
same,PRISMA enrichment of interactor (log2),"DDX1, Q92499",6.62
same,PRISMA enrichment of interactor (log2),"DDX18, Q9NVP1",4.67
same,PRISMA enrichment of interactor (log2),"DDX27, Q96GQ7",4.9
same,PRISMA enrichment of interactor (log2),"DDX49, Q9Y6V7",6.4
same,PRISMA enrichment of interactor (log2),"DDX6, P26196",5.96
same,PRISMA enrichment of interactor (log2),"DECR2, Q9NUI1",5.69
same,PRISMA enrichment of interactor (log2),"DERPC, P0CG12",7.54
same,PRISMA enrichment of interactor (log2),"DHX30, Q7L2E3",4.98
same,PRISMA enrichment of interactor (log2),"DIDO1, Q9BTC0",5.11
same,PRISMA enrichment of interactor (log2),"DNAJA3, Q96EY1",6.02
same,PRISMA enrichment of interactor (log2),"DNAJB1, P25685",6.34
same,PRISMA enrichment of interactor (log2),"DNAJB11, Q9UBS4",5.96
same,PRISMA enrichment of interactor (log2),"DNAJB12, Q9NXW2",4.16
same,PRISMA enrichment of interactor (log2),"DRG1, Q9Y295",4.86
same,PRISMA enrichment of interactor (log2),"DSP, P15924",6.34
same,PRISMA enrichment of interactor (log2),"DUSP11, O75319",4.44
same,PRISMA enrichment of interactor (log2),"EDF1, O60869",4.72
same,PRISMA enrichment of interactor (log2),"EEFSEC, P57772",4.49
same,PRISMA enrichment of interactor (log2),"EFHD2, Q96C19",4.23
same,PRISMA enrichment of interactor (log2),"EHHADH, Q08426",6.26
same,PRISMA enrichment of interactor (log2),"EMG1, Q92979",5.81
same,PRISMA enrichment of interactor (log2),"ERCC3, P19447",3.85
same,PRISMA enrichment of interactor (log2),"EWSR1, Q01844",5.55
same,PRISMA enrichment of interactor (log2),"FAM136A, Q96C01",4.56
same,PRISMA enrichment of interactor (log2),"FAM50A, Q14320",4.89
same,PRISMA enrichment of interactor (log2),"FAM91A1, Q658Y4",5.58
same,PRISMA enrichment of interactor (log2),"FAM98A, Q8NCA5",5.69
same,PRISMA enrichment of interactor (log2),"FAM98B, Q52LJ0",3.91
same,PRISMA enrichment of interactor (log2),"FBL, P22087",4.88
same,PRISMA enrichment of interactor (log2),"FHL1, Q13642",4.22
same,PRISMA enrichment of interactor (log2),"FTSJ3, Q8IY81",4.74
same,PRISMA enrichment of interactor (log2),"FUBP1, Q96AE4",5.56 ± 2.1
same,PRISMA enrichment of interactor (log2),"FUBP3, Q96I24",6.7
same,PRISMA enrichment of interactor (log2),"FUS, P35637",5.67
same,PRISMA enrichment of interactor (log2),"G3BP1, Q13283",4.61
same,PRISMA enrichment of interactor (log2),"G3BP2, Q9UN86",6.04
same,PRISMA enrichment of interactor (log2),"GABARAPL2, P60520",6.13
same,PRISMA enrichment of interactor (log2),"GMPPA, Q96IJ6",4.41
same,PRISMA enrichment of interactor (log2),"GSK3B, P49841",5.97
same,PRISMA enrichment of interactor (log2),"GTPBP1, O00178",6.7
same,PRISMA enrichment of interactor (log2),"HCFC1, P51610",5.66

# 2 entries from above, with bars between the fields.
binder | measurement | setting | value
MVDNFYF [ASPN] | PRISMA enrichment of interactor (log2) | EMG1, Q92979 | 5.81
same | PRISMA enrichment of interactor (log2) | ERCC3, P19447 | 3.85
